Source: the supplement of paper PMC11732987, “Enantioselective OTUD7B fragment discovery through chemoproteomics screening and high-throughput optimisation” (Communications Chemistry, 2025)
The other results are listed elsewhere or left out. The data scatter; read single values as rough.

The chains behind the UniProt entries cited, without tags or fusion partners. Where a name states a change or a piece, a line headed by the entry shows the natural chain unless it says otherwise.
UniProt Q15057: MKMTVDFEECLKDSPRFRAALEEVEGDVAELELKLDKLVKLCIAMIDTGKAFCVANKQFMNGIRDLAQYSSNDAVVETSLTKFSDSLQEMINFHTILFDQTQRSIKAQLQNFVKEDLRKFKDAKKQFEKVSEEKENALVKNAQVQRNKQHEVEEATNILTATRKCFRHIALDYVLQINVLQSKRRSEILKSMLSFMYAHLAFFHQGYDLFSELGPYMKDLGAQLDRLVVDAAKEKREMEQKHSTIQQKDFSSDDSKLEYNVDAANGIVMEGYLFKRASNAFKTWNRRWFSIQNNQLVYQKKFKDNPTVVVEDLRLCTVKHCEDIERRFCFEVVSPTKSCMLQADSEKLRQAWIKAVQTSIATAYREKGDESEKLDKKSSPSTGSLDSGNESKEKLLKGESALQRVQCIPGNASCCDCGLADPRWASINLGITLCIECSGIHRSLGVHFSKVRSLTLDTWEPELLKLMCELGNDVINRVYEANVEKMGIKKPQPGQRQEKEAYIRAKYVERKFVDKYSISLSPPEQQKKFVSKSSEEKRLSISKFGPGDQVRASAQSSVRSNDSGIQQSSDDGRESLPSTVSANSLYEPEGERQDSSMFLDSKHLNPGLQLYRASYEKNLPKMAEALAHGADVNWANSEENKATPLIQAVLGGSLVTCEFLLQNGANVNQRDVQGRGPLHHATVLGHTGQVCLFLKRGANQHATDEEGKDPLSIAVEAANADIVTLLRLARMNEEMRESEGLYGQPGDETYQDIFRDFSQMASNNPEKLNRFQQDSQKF
UniProt P42684, whole entry, looked up: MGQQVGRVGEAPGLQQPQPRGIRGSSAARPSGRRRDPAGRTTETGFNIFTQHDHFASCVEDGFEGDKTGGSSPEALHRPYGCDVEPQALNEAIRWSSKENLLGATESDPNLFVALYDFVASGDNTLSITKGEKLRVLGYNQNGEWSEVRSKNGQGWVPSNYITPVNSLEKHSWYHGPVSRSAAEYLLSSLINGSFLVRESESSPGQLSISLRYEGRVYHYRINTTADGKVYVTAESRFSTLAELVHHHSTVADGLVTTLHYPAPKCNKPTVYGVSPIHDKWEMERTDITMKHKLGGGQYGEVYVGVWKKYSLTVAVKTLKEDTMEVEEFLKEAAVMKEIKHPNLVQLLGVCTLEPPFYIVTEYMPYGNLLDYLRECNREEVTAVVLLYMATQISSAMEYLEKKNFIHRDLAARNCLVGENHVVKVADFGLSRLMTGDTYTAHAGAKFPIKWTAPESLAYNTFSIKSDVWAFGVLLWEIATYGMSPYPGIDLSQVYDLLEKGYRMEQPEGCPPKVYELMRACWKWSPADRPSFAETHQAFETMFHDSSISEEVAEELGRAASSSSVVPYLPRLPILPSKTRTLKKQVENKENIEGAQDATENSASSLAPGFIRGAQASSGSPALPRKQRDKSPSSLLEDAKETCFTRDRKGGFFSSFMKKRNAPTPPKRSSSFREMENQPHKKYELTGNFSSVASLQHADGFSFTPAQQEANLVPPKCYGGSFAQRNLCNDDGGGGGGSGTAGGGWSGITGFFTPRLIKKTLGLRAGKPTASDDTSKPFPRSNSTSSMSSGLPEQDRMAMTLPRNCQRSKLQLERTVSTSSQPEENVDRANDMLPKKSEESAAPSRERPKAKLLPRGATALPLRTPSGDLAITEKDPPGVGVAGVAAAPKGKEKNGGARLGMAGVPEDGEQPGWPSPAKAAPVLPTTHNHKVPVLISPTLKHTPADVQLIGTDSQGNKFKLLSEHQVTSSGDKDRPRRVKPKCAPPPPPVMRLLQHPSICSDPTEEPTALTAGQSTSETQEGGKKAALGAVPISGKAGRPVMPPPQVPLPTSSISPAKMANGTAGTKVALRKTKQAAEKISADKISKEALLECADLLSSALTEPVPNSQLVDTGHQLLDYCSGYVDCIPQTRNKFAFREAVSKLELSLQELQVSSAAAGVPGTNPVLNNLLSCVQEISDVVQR
UniProt O15440: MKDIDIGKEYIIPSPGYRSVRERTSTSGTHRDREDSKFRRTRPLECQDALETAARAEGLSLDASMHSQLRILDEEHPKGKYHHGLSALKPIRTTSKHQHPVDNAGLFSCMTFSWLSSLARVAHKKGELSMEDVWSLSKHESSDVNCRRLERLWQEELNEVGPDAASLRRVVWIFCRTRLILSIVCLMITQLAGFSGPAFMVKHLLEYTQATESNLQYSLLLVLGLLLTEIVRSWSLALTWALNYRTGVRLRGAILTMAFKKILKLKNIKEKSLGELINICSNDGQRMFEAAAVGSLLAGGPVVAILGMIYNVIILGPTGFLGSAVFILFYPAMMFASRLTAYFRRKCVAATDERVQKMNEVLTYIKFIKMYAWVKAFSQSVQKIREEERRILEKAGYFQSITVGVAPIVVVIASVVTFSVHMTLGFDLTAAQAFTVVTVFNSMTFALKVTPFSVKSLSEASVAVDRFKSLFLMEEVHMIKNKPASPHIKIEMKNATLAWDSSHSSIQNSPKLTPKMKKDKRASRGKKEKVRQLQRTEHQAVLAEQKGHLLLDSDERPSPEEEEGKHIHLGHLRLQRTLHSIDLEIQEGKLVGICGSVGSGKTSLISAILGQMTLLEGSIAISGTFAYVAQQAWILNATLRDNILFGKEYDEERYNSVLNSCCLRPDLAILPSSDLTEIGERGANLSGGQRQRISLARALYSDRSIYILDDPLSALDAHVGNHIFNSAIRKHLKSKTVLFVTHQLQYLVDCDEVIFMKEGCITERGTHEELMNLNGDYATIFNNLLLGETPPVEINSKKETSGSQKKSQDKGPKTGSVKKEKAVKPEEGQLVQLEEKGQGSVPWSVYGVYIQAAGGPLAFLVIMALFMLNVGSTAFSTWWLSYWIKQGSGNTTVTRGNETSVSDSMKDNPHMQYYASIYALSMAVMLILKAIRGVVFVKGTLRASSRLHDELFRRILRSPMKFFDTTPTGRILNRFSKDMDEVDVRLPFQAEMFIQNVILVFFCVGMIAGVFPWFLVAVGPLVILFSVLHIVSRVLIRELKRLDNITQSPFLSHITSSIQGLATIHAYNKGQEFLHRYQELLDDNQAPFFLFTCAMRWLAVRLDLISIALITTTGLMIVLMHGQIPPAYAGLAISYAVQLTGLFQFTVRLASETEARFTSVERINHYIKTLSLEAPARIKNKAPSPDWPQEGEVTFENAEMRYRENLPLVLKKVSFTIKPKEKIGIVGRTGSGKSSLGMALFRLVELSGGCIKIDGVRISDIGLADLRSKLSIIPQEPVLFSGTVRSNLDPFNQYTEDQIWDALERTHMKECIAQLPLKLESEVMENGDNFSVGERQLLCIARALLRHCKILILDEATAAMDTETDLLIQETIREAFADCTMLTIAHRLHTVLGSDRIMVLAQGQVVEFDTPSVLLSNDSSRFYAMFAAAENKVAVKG
UniProt Q9NX38: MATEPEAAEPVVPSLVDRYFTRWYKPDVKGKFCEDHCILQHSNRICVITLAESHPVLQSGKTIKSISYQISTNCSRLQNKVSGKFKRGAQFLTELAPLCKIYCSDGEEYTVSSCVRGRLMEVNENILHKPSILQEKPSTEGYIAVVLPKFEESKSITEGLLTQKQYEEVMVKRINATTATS
UniProt P09110: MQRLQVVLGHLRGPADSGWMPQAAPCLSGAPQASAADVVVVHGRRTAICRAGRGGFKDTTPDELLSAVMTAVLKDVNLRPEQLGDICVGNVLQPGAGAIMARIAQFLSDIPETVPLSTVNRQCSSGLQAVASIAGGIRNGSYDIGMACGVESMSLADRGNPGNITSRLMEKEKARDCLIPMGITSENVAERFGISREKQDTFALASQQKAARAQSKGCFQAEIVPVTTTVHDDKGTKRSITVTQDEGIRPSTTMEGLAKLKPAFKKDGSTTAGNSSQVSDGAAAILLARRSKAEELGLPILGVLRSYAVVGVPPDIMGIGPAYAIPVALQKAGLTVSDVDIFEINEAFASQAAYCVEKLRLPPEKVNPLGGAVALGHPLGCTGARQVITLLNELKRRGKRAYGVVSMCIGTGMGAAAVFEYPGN
UniProt O95870: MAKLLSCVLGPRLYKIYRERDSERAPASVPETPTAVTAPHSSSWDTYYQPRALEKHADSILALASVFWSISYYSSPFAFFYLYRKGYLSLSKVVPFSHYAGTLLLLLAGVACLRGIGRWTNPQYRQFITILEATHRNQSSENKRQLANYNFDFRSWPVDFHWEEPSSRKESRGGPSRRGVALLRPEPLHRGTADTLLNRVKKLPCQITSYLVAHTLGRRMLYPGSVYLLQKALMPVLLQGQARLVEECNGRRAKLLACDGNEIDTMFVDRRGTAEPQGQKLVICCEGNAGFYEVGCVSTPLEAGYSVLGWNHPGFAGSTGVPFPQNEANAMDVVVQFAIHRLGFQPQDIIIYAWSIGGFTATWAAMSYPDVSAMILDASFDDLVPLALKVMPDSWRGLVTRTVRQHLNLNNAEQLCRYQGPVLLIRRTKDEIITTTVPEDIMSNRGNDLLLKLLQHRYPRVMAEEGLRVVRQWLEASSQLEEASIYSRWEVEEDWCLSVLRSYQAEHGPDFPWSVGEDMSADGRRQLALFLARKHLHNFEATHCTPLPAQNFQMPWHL
UniProt Q9NYB9: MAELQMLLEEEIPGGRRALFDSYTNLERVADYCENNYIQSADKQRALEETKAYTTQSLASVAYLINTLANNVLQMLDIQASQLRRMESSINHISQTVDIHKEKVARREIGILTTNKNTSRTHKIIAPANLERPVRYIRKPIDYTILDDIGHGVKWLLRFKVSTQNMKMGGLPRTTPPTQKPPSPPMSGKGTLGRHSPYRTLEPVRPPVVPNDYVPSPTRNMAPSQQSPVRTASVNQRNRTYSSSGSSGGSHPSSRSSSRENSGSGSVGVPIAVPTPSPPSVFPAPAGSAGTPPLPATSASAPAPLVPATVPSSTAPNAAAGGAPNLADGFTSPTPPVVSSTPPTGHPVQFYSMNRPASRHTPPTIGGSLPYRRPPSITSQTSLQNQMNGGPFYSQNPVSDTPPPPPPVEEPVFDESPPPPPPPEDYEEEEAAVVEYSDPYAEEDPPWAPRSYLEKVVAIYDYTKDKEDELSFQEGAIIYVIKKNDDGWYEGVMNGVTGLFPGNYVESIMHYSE
UniProt Q9NUQ8: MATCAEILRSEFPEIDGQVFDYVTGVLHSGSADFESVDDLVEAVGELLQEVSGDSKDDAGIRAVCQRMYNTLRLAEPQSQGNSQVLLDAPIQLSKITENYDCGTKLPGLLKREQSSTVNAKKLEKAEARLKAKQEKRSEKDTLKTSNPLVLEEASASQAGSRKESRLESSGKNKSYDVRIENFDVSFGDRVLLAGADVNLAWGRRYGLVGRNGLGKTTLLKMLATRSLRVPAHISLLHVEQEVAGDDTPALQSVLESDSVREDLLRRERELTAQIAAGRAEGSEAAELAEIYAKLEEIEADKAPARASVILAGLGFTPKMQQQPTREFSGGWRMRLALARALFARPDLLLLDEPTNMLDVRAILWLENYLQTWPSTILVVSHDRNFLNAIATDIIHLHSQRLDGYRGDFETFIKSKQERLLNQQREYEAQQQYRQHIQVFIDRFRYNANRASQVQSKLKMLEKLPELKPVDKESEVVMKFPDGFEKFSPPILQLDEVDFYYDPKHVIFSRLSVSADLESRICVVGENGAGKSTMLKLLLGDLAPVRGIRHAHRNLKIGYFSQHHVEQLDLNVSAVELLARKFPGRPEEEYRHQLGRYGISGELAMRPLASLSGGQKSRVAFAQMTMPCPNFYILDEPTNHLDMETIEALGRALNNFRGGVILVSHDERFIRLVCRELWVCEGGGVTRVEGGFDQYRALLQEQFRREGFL
UniProt Q9NUT2: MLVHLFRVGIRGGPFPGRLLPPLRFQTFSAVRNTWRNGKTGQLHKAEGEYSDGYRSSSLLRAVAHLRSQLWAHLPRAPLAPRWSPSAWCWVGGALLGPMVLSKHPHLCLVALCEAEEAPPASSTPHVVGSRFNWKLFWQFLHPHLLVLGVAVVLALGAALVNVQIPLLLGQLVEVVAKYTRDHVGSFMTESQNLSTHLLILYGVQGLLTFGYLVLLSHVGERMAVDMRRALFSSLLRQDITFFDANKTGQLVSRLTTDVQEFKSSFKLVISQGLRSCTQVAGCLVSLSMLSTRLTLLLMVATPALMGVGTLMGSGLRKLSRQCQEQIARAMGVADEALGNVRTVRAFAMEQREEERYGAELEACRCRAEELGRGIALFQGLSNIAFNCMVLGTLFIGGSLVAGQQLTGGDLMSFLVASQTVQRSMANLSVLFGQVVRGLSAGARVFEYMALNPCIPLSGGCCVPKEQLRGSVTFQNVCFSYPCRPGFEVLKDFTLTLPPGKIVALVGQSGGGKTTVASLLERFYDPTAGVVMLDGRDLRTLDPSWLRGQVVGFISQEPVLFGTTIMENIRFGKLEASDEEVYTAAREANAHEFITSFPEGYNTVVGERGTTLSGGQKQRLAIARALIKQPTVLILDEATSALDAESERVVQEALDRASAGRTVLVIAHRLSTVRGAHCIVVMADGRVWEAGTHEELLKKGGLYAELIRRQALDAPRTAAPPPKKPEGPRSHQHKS

What follows are targets tested with ClCC(=O)N[C@H]1CCCc2ccccc12 (assay: log2 mean competition ratio of IA-DTB cysteine labelling (DMSO/compound) (log2 ratio); higher = stronger cysteine engagement by compound). Conditions: 50 µM; treatment time: 4 h; cell line lysate: HEK293T.
Experimental: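 IA-DTB competitive cysteine chemoproteomics in HEK293T RIPA lysate. Lysates were treated with compound 29 or 30 at 50 or 200 µM for 4 h, then IA-DTB (500 µM, 1 h), trypsin-digested, NeutrAvidin-enriched and analysed by diaPASEF. Competition ratio = intensity DMSO / intensity compound (n=4 treated, n=64 DMSO); binding: mean log2 CR ≥ 1 and p ≤ 0.05 plus QC filters. Target is the cysteine site.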

Target	log2 mean competition ratio
ACADSB C261 (UniProt P45954)	0.243
ACAP2 C468 (UniProt Q15057)	-0.0907
ABL2 C415 (UniProt P42684)	-0.237
ABCC5 C280 (UniProt O15440)	0.157
ACACA C1396 (UniProt Q13085)	-0.465
ABL2 C510 (UniProt P42684)	-0.346
ABITRAM C74 (UniProt Q9NX38)	-0.0686
ACAP2 C321 (UniProt Q15057)	-0.111
ACAA1 C177 (UniProt P09110)	0.039
ABHD16A C258 (UniProt O95870)	0.155
AAK1 C193	-0.0304
ABI2 C33 (UniProt Q9NYB9)	-0.236
ABCB1 C1074 (UniProt P08183)	0.29
ABCF3 C680 (UniProt Q9NUQ8)	0.0767
ABHD16A C248 (UniProt O95870)	-0.17
ABCF3 C522 (UniProt Q9NUQ8)	-0.0893
ABCF3 C4 (UniProt Q9NUQ8)	0.373
ACACA C1297 (UniProt Q13085)	-0.47
ABCC10 C1425 (UniProt Q5T3U5)	-0.258
ABCB8 C364 (UniProt Q9NUT2)	-0.0741

Same assay, conditions: 200 µM; treatment time: 4 h; cell line lysate: HEK293T

Target	log2 mean competition ratio
ACADSB C261 (UniProt P45954)	0.219
ACAP2 C468 (UniProt Q15057)	-0.122
ABL2 C415 (UniProt P42684)	-0.047
ABCC5 C280 (UniProt O15440)	-0.112
ACACA C1396 (UniProt Q13085)	-0.281
ABL2 C510 (UniProt P42684)	-0.329
ABITRAM C74 (UniProt Q9NX38)	-0.126
ACAP2 C321 (UniProt Q15057)	0.159
ACAA1 C177 (UniProt P09110)	0.207
ABHD16A C258 (UniProt O95870)	0.138
AAK1 C193	-0.124
ABI2 C33 (UniProt Q9NYB9)	0.185
ABCB1 C1074 (UniProt P08183)	0.248
ABCF3 C680 (UniProt Q9NUQ8)	-0.0556
ABHD16A C248 (UniProt O95870)	0.126
ABCF3 C522 (UniProt Q9NUQ8)	-0.00246
ABCF3 C4 (UniProt Q9NUQ8)	0.0969
ACACA C1297 (UniProt Q13085)	0.0867
ABCC10 C1425 (UniProt Q5T3U5)	0.0385
ABCB8 C364 (UniProt Q9NUT2)	0.264
